For five targets, log2 fold change results are on record in the supplement of paper PMC10849652.

Sequences of proteins named here, by UniProt entry; tags and fusion partners are left off. A change or cut given only in a name is not applied to a line headed by its entry.
UniProt Q92995: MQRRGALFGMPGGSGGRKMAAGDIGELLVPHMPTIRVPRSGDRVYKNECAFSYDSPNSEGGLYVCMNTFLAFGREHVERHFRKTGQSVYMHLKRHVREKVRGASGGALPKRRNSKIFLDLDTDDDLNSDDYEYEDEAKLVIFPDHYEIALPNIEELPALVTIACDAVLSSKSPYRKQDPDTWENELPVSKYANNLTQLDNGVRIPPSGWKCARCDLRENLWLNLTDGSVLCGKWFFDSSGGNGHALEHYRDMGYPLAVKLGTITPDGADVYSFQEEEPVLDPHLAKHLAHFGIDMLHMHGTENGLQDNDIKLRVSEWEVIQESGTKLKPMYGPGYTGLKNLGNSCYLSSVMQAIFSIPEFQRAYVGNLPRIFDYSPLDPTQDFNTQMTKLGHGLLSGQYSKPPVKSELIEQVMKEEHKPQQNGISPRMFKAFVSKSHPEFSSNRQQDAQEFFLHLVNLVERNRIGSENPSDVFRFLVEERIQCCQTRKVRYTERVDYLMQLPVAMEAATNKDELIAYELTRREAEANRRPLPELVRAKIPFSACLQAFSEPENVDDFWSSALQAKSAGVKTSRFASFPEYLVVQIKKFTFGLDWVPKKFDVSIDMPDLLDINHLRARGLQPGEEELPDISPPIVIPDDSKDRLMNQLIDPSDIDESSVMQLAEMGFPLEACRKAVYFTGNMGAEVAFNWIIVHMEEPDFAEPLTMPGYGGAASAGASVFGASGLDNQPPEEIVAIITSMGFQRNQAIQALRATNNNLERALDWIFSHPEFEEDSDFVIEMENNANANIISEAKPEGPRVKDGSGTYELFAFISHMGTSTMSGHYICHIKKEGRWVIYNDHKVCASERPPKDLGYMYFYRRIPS
UniProt O94763, whole entry, looked up: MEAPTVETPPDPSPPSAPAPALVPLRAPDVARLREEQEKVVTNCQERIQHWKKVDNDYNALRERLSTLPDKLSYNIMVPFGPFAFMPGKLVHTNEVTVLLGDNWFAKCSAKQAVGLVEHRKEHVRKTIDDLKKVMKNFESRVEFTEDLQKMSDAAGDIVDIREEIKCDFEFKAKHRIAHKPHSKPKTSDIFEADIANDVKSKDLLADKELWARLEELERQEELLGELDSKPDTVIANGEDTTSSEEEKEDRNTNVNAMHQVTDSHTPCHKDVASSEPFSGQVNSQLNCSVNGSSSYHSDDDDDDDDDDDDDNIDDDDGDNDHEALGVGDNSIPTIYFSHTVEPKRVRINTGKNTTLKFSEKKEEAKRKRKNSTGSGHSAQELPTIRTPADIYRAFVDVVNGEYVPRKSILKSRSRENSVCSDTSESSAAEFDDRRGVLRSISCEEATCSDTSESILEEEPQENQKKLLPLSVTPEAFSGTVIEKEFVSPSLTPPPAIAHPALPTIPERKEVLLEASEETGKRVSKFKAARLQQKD
UniProt P07919: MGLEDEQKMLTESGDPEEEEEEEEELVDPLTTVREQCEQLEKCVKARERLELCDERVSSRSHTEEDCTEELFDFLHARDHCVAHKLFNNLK
UniProt O94888: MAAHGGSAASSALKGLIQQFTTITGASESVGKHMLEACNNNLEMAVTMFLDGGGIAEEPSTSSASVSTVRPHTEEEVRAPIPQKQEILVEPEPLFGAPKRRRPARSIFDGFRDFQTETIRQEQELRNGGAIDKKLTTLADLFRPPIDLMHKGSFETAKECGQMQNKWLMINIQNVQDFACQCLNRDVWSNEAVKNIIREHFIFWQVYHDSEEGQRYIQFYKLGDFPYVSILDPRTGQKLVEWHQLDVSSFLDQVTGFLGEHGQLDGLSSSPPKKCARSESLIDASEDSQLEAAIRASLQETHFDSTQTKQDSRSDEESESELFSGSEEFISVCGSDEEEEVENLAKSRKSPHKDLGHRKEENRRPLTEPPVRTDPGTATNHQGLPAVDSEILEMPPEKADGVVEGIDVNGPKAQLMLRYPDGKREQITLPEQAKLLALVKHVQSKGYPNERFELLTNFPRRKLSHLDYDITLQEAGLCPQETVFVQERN
UniProt P06132: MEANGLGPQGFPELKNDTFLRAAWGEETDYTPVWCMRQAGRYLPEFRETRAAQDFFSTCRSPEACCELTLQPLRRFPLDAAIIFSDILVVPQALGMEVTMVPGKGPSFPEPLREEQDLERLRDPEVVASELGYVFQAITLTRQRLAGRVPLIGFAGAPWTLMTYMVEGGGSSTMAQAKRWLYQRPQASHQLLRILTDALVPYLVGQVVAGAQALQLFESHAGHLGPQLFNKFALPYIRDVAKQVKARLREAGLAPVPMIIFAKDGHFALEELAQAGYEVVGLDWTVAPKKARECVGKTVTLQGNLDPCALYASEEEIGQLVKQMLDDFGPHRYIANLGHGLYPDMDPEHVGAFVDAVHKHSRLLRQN

Some of the results follow.

Compound in the experiment: c1cn2cc(-c3ccc4cn[nH]c4c3)nc(Nc3ccc(N4CCOCC4)cc3)c2n1 [entospletinib]
The experiment can be described thus: log2 fold change, soluble protein after heating vs DMSO (PISA); higher = thermal stabilisation; K562 cells, 10 uM, 30 min; active = over 0.2 and 3.5 SD of the protein, either way, in both replicates (recomputed). In short, it runs like this:
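K562 cells at 2×10^6 cells/mL were treated with 10 μM compound for 30 min. Aliquots were heated for 3 min across 48°C-58°C, pooled, and extracted in PBS with 0.5% NP-40 at 4°C; soluble protein was the supernatant after 21,000xg for 90 min. Soluble protein was quantified by TMTpro 16plex LC-MS/MS with channel sums equalised, and reported as log2 fold change in thermal stability against DMSO controls, with values from duplicates.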
Turning to USP13 (UniProt Q92995), the log2 fold change was inactive: -0.015. Turning to URI1 isoform 4 (UniProt O94763), the log2 fold change is inactive: 0.064. To UQCRH (UniProt P07919) belongs inactive: -0.1.

On to UBXN7 (UniProt O94888), for which the log2 fold change was inactive: 0.014. To UROD (UniProt P06132) belongs inactive: 0.02.
